{"source": "paper PMC7819943", "about": "“Rice protein-binding microarrays: a tool to detect cis-acting elements near promoter regions in rice”", "note": "The list shows a part of the results."}
{"target": "T1, OsSMF1 (Oryza sativa, UniProt Q6ZLB0 1-436)", "T1 sequence": "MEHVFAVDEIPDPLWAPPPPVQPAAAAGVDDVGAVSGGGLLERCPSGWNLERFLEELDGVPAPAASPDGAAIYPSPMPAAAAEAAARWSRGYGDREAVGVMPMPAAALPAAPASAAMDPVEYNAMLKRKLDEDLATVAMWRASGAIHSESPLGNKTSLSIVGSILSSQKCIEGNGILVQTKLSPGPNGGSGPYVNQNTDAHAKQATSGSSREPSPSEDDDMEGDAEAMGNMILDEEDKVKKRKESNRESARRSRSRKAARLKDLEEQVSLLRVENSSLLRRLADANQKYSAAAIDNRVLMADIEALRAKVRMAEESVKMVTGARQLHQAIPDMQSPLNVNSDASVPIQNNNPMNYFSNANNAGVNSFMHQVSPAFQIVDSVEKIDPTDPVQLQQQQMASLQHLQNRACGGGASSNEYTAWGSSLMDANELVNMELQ", "experiment": "protein-binding microarray (RPBM); PBS, 2% BSA, 51.3 ng/ul salmon testes DNA, 50 uM zinc acetate, 200 nM TF, 25 C, 1 h; high values mean tight binding", "details": "protein: recombinant; tags: N-terminal polyhistidine and DsRed monomer fusion (pET32a); chain copies: 2; label: CyDye5-dUTP incorporated in the synthesized complementary strand; 3' TTTTT single-stranded linker to array surface; dsDNA, one strand shown", "outline": "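Transcription factors were each fused at the N-terminus to a polyhistidine tag plus DsRed and expressed in E. coli BL21-CodonPlus before Ni–NTA purification. Binding to a double-stranded custom Agilent array was carried out with 200 nM protein at 25 °C for 1 h in PBS, 2% BSA, salmon testes DNA and 50 µM zinc acetate. The binding signal is per-feature fluorescence intensity, in arbitrary units, on an Axon 4000B scanner.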"}
{"sequence": "TATTGGATATTTTGCATTGTTTTGGTTGTAGACGTGGTTTCGGAGTCACCTAGTGCAG", "binding signal": "3860 fluorescence intensity (a.u.)"}
{"sequence": "GGAGAAAGAAAATGACGGAGTGACGTATTCGATGACAGTGCGGAGTCACCTAGTGCAG", "binding signal": "3240 fluorescence intensity (a.u.)"}
{"sequence": "GCCCAGCCAAATTTCCCTTGACACGCACCTAAATTAGGCGCGGAGTCACCTAGTGCAG", "binding signal": "3800 fluorescence intensity (a.u.)"}
{"sequence": "TTGGCGTTGATGTGGCATGCCACACATACATGACATGACACGGAGTCACCTAGTGCAG", "binding signal": "6560 fluorescence intensity (a.u.)"}
{"sequence": "GTCTTGCCTTCACCGCTAAGCATCAGCCGCTGACGTCAGCCGGAGTCACCTAGTGCAG", "binding signal": "26600 fluorescence intensity (a.u.)"}
{"sequence": "GAGCACCGGCTAAATCCAGCAGCGCGGGCAGCGGGCGAGACGGAGTCACCTAGTGCAG", "binding signal": "23100 fluorescence intensity (a.u.)"}
{"sequence": "ATCATGAATATATAATAAGCATACAATTCATTATTAGCATCGGAGTCACCTAGTGCAG", "binding signal": "3600 fluorescence intensity (a.u.)"}
{"sequence": "TTCCCTCTAACTCTGAGTCACCGATATATGGGCCCATTAACGGAGTCACCTAGTGCAG", "binding signal": "6770 fluorescence intensity (a.u.)"}
{"sequence": "CGGGCGCGCCACGGCGGCGACGGGTCGGGTCTCGCTGTCGCGGAGTCACCTAGTGCAG", "binding signal": "4000 fluorescence intensity (a.u.)"}
{"sequence": "TTGGCCCCAATATTGAATCCTGTAGGTGACACATTAACTGCGGAGTCACCTAGTGCAG", "binding signal": "3760 fluorescence intensity (a.u.)"}
{"sequence": "ACGATGACTGGGAGAGGTGATGAGATCTGGTGAGGTGTCCCGGAGTCACCTAGTGCAG", "binding signal": "5530 fluorescence intensity (a.u.)"}
{"sequence": "CTTAATTACTCCTATATATATAAGGCAACCTATTATTGCCCGGAGTCACCTAGTGCAG", "binding signal": "13500 fluorescence intensity (a.u.)"}
{"sequence": "AAATAGGTGATGATGCAAACTGGTTTACCATGATGCAGTACGGAGTCACCTAGTGCAG", "binding signal": "3600 fluorescence intensity (a.u.)"}
{"sequence": "CCAGGTCACATTCACATCTCTCTTTACCAAAGCTAAGCCACGGAGTCACCTAGTGCAG", "binding signal": "48100 fluorescence intensity (a.u.)"}
{"sequence": "GCACCGTTGCTACGTGAGACCGCGCGGTCTCGCACTTTTACGGAGTCACCTAGTGCAG", "binding signal": "3160 fluorescence intensity (a.u.)"}
{"sequence": "ATAGATTGTGGGGCCCAGATGTTGGTGGTAGACGTGGTTTCGGAGTCACCTAGTGCAG", "binding signal": "3400 fluorescence intensity (a.u.)"}
{"sequence": "GCCGCGGCGGACGCGCACGATGTTCCCGCGCATGATGTGGCGGAGTCACCTAGTGCAG", "binding signal": "6670 fluorescence intensity (a.u.)"}
{"sequence": "CTATTTTAATCCCTCGAGAGAATATCCCCTCGTTCTTTGTCGGAGTCACCTAGTGCAG", "binding signal": "3900 fluorescence intensity (a.u.)"}
{"sequence": "AAAGATTCCTAATTTAGATAACGTGTTTACACCACGACGGCGGAGTCACCTAGTGCAG", "binding signal": "3490 fluorescence intensity (a.u.)"}
{"sequence": "CGATCCCTAACATTGAGGAACGAGTCTCACGCATTCTCTCCGGAGTCACCTAGTGCAG", "binding signal": "3750 fluorescence intensity (a.u.)"}
{"sequence": "TATAGTCCACTAAGTTCAACATGCTACCACGCCACATCATCGGAGTCACCTAGTGCAG", "binding signal": "6500 fluorescence intensity (a.u.)"}
{"sequence": "GCTCCTTCTCGAACCCGCCCAGCACTGGCCGCGGTGGCACCGGAGTCACCTAGTGCAG", "binding signal": "4220 fluorescence intensity (a.u.)"}
{"sequence": "GCCAAAGTAGAATGTCTCTTTCGAATCACATTGTACAGAGCGGAGTCACCTAGTGCAG", "binding signal": "5190 fluorescence intensity (a.u.)"}
{"sequence": "AGTTGTGATCCCGATCTGTAATAGTTAGCTGTCATCACGTCGGAGTCACCTAGTGCAG", "binding signal": "3730 fluorescence intensity (a.u.)"}
{"sequence": "CGGGTGCGGCGCTGCAGCTGCTAACCTTCCCACGCCACGCCGGAGTCACCTAGTGCAG", "binding signal": "3460 fluorescence intensity (a.u.)"}
{"sequence": "CGTGCAAGTCGATTTCATCACTTGATCACGCCGATGCAGGCGGAGTCACCTAGTGCAG", "binding signal": "30400 fluorescence intensity (a.u.)"}
{"sequence": "TTTACCAACCAGAAGGTCTTGAGCTCGATTCCTTGCGCTTCGGAGTCACCTAGTGCAG", "binding signal": "3670 fluorescence intensity (a.u.)"}
{"sequence": "ATGAATAATAAACTAAAGGCTCCTAGATGGCTGGAGGTTGCGGAGTCACCTAGTGCAG", "binding signal": "3250 fluorescence intensity (a.u.)"}
{"sequence": "GCCTCGCACAGTCGCGTTCCACGAATGCTCACGCGCGCGCCGGAGTCACCTAGTGCAG", "binding signal": "3530 fluorescence intensity (a.u.)"}
{"sequence": "AATCCATGCTGACACGTAGATGTGTCATGCCACATAGACACGGAGTCACCTAGTGCAG", "binding signal": "10200 fluorescence intensity (a.u.)"}
{"sequence": "AACTGCCACGTAAGTGCCACGTCAAAGCCACGTACAACGACGGAGTCACCTAGTGCAG", "binding signal": "24200 fluorescence intensity (a.u.)"}
{"sequence": "GGGAATCGGGAGAGCGAGATGTGCCGTGTGCGTGCGTGTCCGGAGTCACCTAGTGCAG", "binding signal": "4590 fluorescence intensity (a.u.)"}
{"sequence": "GGTCTCACCGTGGCGCCTCCCGTCCTGCTCGACGTGTGTCCGGAGTCACCTAGTGCAG", "binding signal": "3630 fluorescence intensity (a.u.)"}
{"sequence": "TACAACTATCGGGTGCACCGTCCCGTCGTCCACGTAGAAGCGGAGTCACCTAGTGCAG", "binding signal": "3480 fluorescence intensity (a.u.)"}
{"sequence": "GTTATCTGATTCACGTTTACGAACGTAACTGTAAAAGAGACGGAGTCACCTAGTGCAG", "binding signal": "3460 fluorescence intensity (a.u.)"}
{"sequence": "TCGGCAACCTGTAGAAGCCCCTTCTCTGACGCGGCTCTTGCGGAGTCACCTAGTGCAG", "binding signal": "5270 fluorescence intensity (a.u.)"}
{"sequence": "ATTTCGAATTTCCCATTTCTTTTAGCGCCACGTCACGGCACGGAGTCACCTAGTGCAG", "binding signal": "29300 fluorescence intensity (a.u.)"}
{"sequence": "CCCCTCTTCCTTTCACGCGAACCGGCACCCTCCCGACCCTCGGAGTCACCTAGTGCAG", "binding signal": "3300 fluorescence intensity (a.u.)"}
{"sequence": "CACCACGTCCCATCCCGTCGCGTCGCCGCACATTCACCCCCGGAGTCACCTAGTGCAG", "binding signal": "3840 fluorescence intensity (a.u.)"}
{"sequence": "ATCTCATTAAACACGTGGTCACAATTAGCATAGATGAACTCGGAGTCACCTAGTGCAG", "binding signal": "4190 fluorescence intensity (a.u.)"}
{"sequence": "TGGACGGCCAGCTCATTTCCACGACATCCATTTCCTTTCGCGGAGTCACCTAGTGCAG", "binding signal": "11400 fluorescence intensity (a.u.)"}
{"sequence": "TCTCCCAGCCTCCCAGCCAGGCCCAGCAATTGCGTTGGCACGGAGTCACCTAGTGCAG", "binding signal": "4930 fluorescence intensity (a.u.)"}
{"sequence": "TGTCTCCACCACGTCGATATCGATCGAGTGCACCCTCCATCGGAGTCACCTAGTGCAG", "binding signal": "4790 fluorescence intensity (a.u.)"}
{"sequence": "ACCATATGACTTATATATCTGTCGTCAGCTCATTTCTATGCGGAGTCACCTAGTGCAG", "binding signal": "7290 fluorescence intensity (a.u.)"}
{"sequence": "ACCTTCACACAAAGTTATTTGTATATGTTTGTCTCGAAAACGGAGTCACCTAGTGCAG", "binding signal": "30400 fluorescence intensity (a.u.)"}
{"sequence": "TGATTGATGATCTGTCAACAGTCACCTTTTCTTTTATCAACGGAGTCACCTAGTGCAG", "binding signal": "5520 fluorescence intensity (a.u.)"}
{"sequence": "TTGATTTGATTTTGGATGACCTGGTCCATGGACCTGGTAGCGGAGTCACCTAGTGCAG", "binding signal": "3640 fluorescence intensity (a.u.)"}
{"sequence": "TTGGGTAATTTTGAAAAGAATATCCAGCCCAGTGGCGTATCGGAGTCACCTAGTGCAG", "binding signal": "11300 fluorescence intensity (a.u.)"}
{"sequence": "TAAACTGAACATGCCCGTAGTACTGTAAGATTCTTTGTGACGGAGTCACCTAGTGCAG", "binding signal": "3700 fluorescence intensity (a.u.)"}
{"sequence": "TCGGAGCTACCGTCGTGCTCACCCGCGTGGCCGCAGGCCCCGGAGTCACCTAGTGCAG", "binding signal": "34400 fluorescence intensity (a.u.)"}
{"sequence": "GGCCCACGTGGGTCCCACACTGACTCAGCTGCCACGTGGGCGGAGTCACCTAGTGCAG", "binding signal": "38600 fluorescence intensity (a.u.)"}
{"sequence": "CCCGCCACCCCGGCACGCCCGCTCTCCTCTGCTCGGCGCACGGAGTCACCTAGTGCAG", "binding signal": "3260 fluorescence intensity (a.u.)"}
{"sequence": "CACCAGCAGAGCAGAGCAACCACCTGACGTCATGCGTACCCGGAGTCACCTAGTGCAG", "binding signal": "11600 fluorescence intensity (a.u.)"}
{"sequence": "CCCACGGCGCAACGATGACGATGACGATGCCCTTCCGGCGCGGAGTCACCTAGTGCAG", "binding signal": "46900 fluorescence intensity (a.u.)"}
